According to article PMC3355318 (Toxicological Sciences, 2012):

Tested on: 3D spheroids constructed from immortal human C3A hepatocytes (HepG2/C3A)

Compound: CCCCc1oc2ccccc2c1C(=O)c1cc(I)c(OCCN(CC)CC)c(I)c1 [Amiodarone, amiodarone]
- cellular ATP production at low compound concentrations: slightly increased
- LD50 (human): 0.6 mg compound/mg cellular protein
